Source: the supplement of paper PMC6078165
The reference is the same well before dosing, and untreated signal decays as well.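 Fibroblast labels name human fibroblasts: mostly primary ones from tissues such as uterus (C12385, HUF), lung (H6013), bone (Hs27A), adrenal (HADF) and skin (WS1), plus mammary HMF and breast cancer-associated Hs343T. The cancer cells are basal-like or mesenchymal-like triple-negative breast cancer lines. The paper calls a changed response a hit when it shifts by more than 3x the replicate standard deviation. The tissue of the other fibroblasts is not given here.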

Test system: MDAMB468
Assay: relative JC-1 red fluorescence (viability) vs pre-drug, coculture with fibroblast (fraction); higher = more viable cancer cells
Experimental: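 JC-1 labelled TNBC cells cocultured 1:1 (1,500 cells each) with CellTrace Violet stained primary or stromal fibroblasts in 384-well plates in FluoroBrite medium, treated with one of 42 anticancer drugs at 0.1, 1, 10 or 100 uM. JC-1 red fluorescence (mitochondrial integrity in cancer cells only) was read by plate reader every 8 h for 72 h. Values are normalised to each well's pre-drug value. The stock of one drug was tenfold lower, so its dose labels may be too high.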

Nc1ccn([C@@H]2O[C@H](CO)[C@@H](O)C2(F)F)c(=O)n1 [Gemcitabine]
relative JC-1 red fluorescence
Details	8 h	16 h	24 h	32 h	40 h	48 h	56 h	64 h	72 h
0.1 µM, coculture fibroblast: C12385	0.894	0.823	0.804	0.751	0.719	0.722	0.686	0.673	0.677
0.1 µM, coculture fibroblast: H6013	0.89	0.793	0.763	0.74268	0.704	0.714	0.683	0.677	0.622
0.1 µM, coculture fibroblast: H6019	0.81	0.77	0.735	0.675	0.626	0.609	0.56	0.529	0.504
0.1 µM, coculture fibroblast: H6076	0.952	0.935	0.882	0.888	0.817	0.805	0.757	0.734	0.778
0.1 µM, coculture fibroblast: H6231	0.8226	0.864	0.884	0.807	0.766	0.728	0.634	0.599	0.565
0.1 µM, coculture fibroblast: HADF	0.91	0.828	0.785	0.76	0.683	0.674	0.6168	0.597	0.522
0.1 µM, coculture fibroblast: HCFa	0.871	0.7861	0.738	0.676	0.592	0.579	0.519	0.476	0.417
0.1 µM, coculture fibroblast: HCPF	0.8682	0.884	0.916	0.881	0.82	0.753	0.654	0.612	0.547
0.1 µM, coculture fibroblast: HHSteC	0.888	0.803	0.748	0.696	0.641	0.644	0.564	0.53	0.475
0.1 µM, coculture fibroblast: HMF	0.8588	0.77	0.903	0.854	0.795	0.774	0.708	0.675	0.622
0.1 µM, coculture fibroblast: HPFa	0.945	0.916	0.843	0.786	0.755	0.753	0.7	0.676	0.595
0.1 µM, coculture fibroblast: HUF	0.925	0.834	0.763	0.6884	0.6335	0.595	0.528	0.487	0.45
0.1 µM, coculture fibroblast: Hs5	0.897	0.887	0.9	0.885	0.804	0.753	0.703	0.668	0.6944
0.1 µM, coculture fibroblast: Hs27A	0.859	0.795	0.757	0.734	0.678	0.67	0.632	0.634	0.583
0.1 µM, coculture fibroblast: Hs343T	0.9184	0.963	0.885	0.853	0.781	0.751	0.681	0.6513	0.628
0.1 µM, coculture fibroblast: WS1	0.875	0.7436	0.7062	0.635	0.576	0.5355	0.498	0.476	0.473
1 µM, coculture fibroblast: C12385	0.8717	0.7679	0.7767	0.7256	0.6843	0.6815	0.6264	0.6086	0.5958
1 µM, coculture fibroblast: H6013	0.8514	0.838	0.776	0.74	0.708	0.709	0.672	0.67	0.609
1 µM, coculture fibroblast: H6019	0.829	0.774	0.712	0.638	0.583	0.55	0.491	0.453	0.424
1 µM, coculture fibroblast: H6076	0.9534	0.898	0.818	0.804	0.722	0.694	0.63	0.609	0.661
1 µM, coculture fibroblast: H6231	0.832	0.902	0.766	0.762	0.686	0.663	0.6	0.579	0.574
1 µM, coculture fibroblast: HADF	0.9317	0.84	0.805	0.7868	0.755	0.755	0.702	0.692	0.628
1 µM, coculture fibroblast: HCFa	0.834	0.795	0.741	0.724	0.671	0.662	0.604	0.569	0.5
1 µM, coculture fibroblast: HCPF	0.873	0.882	0.804	0.807	0.727	0.69	0.642	0.608	0.593
1 µM, coculture fibroblast: HHSteC	0.913	0.8321	0.7897	0.7504	0.718	0.716	0.654	0.639	0.568
1 µM, coculture fibroblast: HMF	0.849	0.89103	0.798	0.762	0.68	0.66	0.6	0.575	0.547
1 µM, coculture fibroblast: HPFa	0.904	0.832	0.778	0.716	0.681	0.661	0.59	0.562	0.484
1 µM, coculture fibroblast: HUF	0.894	0.803	0.7443	0.6785	0.621	0.587	0.519	0.498	0.477
1 µM, coculture fibroblast: Hs5	0.812	0.924	0.856	0.808	0.717	0.672	0.6	0.554	0.568
1 µM, coculture fibroblast: Hs27A	0.87	0.8253	0.783	0.784	0.753	0.748	0.714	0.71	0.6469
1 µM, coculture fibroblast: Hs343T	0.884	0.925	0.8466	0.804	0.721	0.674	0.583	0.534	0.502
1 µM, coculture fibroblast: WS1	0.877	0.7778	0.731	0.654	0.597	0.55	0.512	0.483	0.472
10 µM, coculture fibroblast: C12385	0.8934	0.7833	0.746	0.673	0.613	0.576	0.52	0.473	0.449
10 µM, coculture fibroblast: H6013	0.865	0.8342	0.7937	0.772	0.739	0.735	0.687	0.686	0.619
10 µM, coculture fibroblast: H6019	0.806	0.75	0.68	0.572	0.487	0.449	0.399	0.375	0.36
10 µM, coculture fibroblast: H6076	0.925	0.951	0.841	0.7974	0.6956	0.6396	0.542	0.502	0.533
10 µM, coculture fibroblast: H6231	0.839	0.912	0.8286	0.81	0.7371	0.6956	0.617	0.577	0.555
10 µM, coculture fibroblast: HADF	0.8849	0.808	0.753	0.722	0.636	0.604	0.523	0.5	0.425
10 µM, coculture fibroblast: HCFa	0.855	0.82013	0.75	0.697	0.62	0.61	0.542	0.497	0.43
10 µM, coculture fibroblast: HCPF	0.89	0.9694	0.905	0.887	0.821	0.777	0.696	0.67	0.632
10 µM, coculture fibroblast: HHSteC	0.8674	0.8128	0.7564	0.701	0.652	0.651	0.573	0.544	0.481
10 µM, coculture fibroblast: HMF	0.84	0.816	0.904	0.847	0.782	0.748	0.667	0.6159	0.561
10 µM, coculture fibroblast: HPFa	0.913	0.853	0.829	0.741	0.677	0.672	0.606	0.574	0.501
10 µM, coculture fibroblast: HUF	0.942	0.8378	0.7876	0.714	0.66	0.629	0.569	0.552	0.535
10 µM, coculture fibroblast: Hs5	0.82	0.969	0.887	0.835	0.744	0.684	0.613	0.561	0.573
10 µM, coculture fibroblast: Hs27A	0.852	0.8087	0.759	0.7521	0.694	0.682	0.627	0.609	0.559
10 µM, coculture fibroblast: Hs343T	0.889	0.9662	0.881	0.841	0.746	0.709	0.631	0.592	0.528
10 µM, coculture fibroblast: WS1	0.856	0.763	0.707	0.64	0.587	0.555	0.502	0.469	0.459
100 µM, coculture fibroblast: C12385	0.894	0.828	0.792	0.723	0.668	0.638	0.562	0.523	0.5
100 µM, coculture fibroblast: H6013	0.867	0.809	0.762	0.729	0.687	0.686	0.646	0.637	0.57
100 µM, coculture fibroblast: H6019	0.841	0.758	0.705	0.596	0.534	0.498	0.44	0.426	0.423
100 µM, coculture fibroblast: H6076	0.937	0.954	0.867	0.82	0.696	0.624	0.545	0.507	0.552
100 µM, coculture fibroblast: H6231	0.858	0.939	0.871	0.871	0.79	0.762	0.711	0.68	0.665
100 µM, coculture fibroblast: HADF	0.8941	0.826	0.7738	0.754	0.698	0.696	0.6335	0.609	0.53
100 µM, coculture fibroblast: HCFa	0.873	0.821	0.761	0.73	0.661	0.641	0.568	0.53	0.46
100 µM, coculture fibroblast: HCPF	0.873	0.9337	0.9079	0.8873	0.7929	0.756	0.679	0.653	0.632
100 µM, coculture fibroblast: HHSteC	0.918	0.827	0.759	0.709	0.657	0.65	0.576	0.54619	0.4843
100 µM, coculture fibroblast: HMF	0.88	0.946	0.8559	0.847	0.78	0.757	0.6833	0.6565	0.63575
100 µM, coculture fibroblast: HPFa	0.915	0.861	0.8033	0.7377	0.689	0.6833	0.61	0.591	0.518
100 µM, coculture fibroblast: HUF	0.925	0.837	0.79	0.715	0.644	0.599	0.548	0.516	0.488
100 µM, coculture fibroblast: Hs5	0.924	0.924	0.8713	0.842	0.745	0.677	0.62	0.577	0.616
100 µM, coculture fibroblast: Hs27A	0.827	0.7462	0.693	0.663	0.59	0.565	0.53	0.505	0.443
100 µM, coculture fibroblast: Hs343T	0.905	0.979	0.917	0.874	0.778	0.728	0.644	0.597	0.563
100 µM, coculture fibroblast: WS1	0.8858	0.796	0.743	0.662	0.605	0.554	0.483	0.418	0.394
